These results are taken from the supplement of paper PMC6411743.

By UniProt entry, the sequences of proteins in these tests, tags left out. Where a name states a change or a piece, a line headed by the entry shows the natural chain unless it says otherwise.
UniProt Q5T6V5: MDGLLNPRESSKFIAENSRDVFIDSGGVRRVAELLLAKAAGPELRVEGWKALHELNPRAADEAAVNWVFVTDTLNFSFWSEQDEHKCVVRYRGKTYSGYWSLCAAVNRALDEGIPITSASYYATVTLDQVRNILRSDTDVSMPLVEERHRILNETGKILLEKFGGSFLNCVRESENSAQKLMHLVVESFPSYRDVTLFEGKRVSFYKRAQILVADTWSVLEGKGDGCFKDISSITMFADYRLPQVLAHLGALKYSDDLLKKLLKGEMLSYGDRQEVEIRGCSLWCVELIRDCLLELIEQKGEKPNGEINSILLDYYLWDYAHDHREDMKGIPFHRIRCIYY
UniProt Q15819: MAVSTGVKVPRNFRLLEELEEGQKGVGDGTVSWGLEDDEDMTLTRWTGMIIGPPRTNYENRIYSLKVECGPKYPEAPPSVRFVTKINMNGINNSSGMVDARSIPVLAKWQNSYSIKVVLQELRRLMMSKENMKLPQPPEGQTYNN
UniProt Q5BKZ1: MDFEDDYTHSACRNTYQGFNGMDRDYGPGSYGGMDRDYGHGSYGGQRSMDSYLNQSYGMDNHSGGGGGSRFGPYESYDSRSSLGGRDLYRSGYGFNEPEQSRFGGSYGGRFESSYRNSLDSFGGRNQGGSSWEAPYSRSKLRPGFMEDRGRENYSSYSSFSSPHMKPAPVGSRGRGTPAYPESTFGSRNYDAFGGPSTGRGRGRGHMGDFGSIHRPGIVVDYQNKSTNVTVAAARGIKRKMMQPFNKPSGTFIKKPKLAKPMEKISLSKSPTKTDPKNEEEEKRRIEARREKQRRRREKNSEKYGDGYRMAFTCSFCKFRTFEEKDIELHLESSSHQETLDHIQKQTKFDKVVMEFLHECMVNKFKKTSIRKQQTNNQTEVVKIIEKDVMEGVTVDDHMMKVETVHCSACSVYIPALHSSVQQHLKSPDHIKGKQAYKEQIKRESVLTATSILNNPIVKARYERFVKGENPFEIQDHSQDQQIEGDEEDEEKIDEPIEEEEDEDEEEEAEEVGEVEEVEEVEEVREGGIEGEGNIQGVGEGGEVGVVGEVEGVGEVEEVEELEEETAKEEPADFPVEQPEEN
UniProt Q14974, whole entry: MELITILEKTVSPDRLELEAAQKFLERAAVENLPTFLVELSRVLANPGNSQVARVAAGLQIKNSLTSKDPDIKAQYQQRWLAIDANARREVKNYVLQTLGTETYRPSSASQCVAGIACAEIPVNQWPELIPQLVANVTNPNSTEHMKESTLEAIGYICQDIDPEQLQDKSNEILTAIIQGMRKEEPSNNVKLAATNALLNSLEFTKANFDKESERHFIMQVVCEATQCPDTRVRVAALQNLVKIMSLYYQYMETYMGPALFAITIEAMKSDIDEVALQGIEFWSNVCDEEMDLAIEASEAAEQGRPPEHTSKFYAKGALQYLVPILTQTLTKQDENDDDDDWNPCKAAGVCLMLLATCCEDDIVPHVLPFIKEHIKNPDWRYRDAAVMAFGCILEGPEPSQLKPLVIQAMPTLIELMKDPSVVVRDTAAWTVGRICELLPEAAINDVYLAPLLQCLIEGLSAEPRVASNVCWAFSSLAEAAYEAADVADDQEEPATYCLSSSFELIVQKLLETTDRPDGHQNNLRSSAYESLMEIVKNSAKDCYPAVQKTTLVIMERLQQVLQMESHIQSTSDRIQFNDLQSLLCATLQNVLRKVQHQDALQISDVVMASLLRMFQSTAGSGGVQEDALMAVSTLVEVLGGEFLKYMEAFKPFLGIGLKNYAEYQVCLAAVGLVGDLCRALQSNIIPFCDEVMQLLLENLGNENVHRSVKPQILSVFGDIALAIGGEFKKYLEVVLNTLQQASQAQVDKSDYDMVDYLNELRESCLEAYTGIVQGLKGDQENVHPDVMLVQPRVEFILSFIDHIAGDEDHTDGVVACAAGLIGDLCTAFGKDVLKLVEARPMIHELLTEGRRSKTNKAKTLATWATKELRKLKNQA
UniProt Q16666: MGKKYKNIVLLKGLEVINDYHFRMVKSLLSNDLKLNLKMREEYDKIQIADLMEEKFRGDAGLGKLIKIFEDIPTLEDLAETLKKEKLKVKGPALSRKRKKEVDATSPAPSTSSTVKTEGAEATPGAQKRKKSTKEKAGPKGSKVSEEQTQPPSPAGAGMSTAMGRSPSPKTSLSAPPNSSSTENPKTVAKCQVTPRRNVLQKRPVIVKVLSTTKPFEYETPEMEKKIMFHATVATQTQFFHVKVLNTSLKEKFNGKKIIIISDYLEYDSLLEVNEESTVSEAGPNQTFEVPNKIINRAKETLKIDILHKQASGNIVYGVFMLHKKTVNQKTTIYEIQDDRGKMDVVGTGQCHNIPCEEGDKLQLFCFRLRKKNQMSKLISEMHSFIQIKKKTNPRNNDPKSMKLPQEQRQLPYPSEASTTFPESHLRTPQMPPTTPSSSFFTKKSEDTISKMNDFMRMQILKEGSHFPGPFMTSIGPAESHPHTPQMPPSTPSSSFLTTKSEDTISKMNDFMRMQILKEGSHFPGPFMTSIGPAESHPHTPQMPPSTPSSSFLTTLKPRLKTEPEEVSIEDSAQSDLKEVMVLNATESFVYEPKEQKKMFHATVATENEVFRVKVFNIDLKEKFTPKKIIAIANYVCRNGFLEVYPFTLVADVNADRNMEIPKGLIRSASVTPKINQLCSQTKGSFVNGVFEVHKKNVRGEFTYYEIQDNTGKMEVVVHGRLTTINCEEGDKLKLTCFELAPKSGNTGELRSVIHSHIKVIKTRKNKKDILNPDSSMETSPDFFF
UniProt Q15181: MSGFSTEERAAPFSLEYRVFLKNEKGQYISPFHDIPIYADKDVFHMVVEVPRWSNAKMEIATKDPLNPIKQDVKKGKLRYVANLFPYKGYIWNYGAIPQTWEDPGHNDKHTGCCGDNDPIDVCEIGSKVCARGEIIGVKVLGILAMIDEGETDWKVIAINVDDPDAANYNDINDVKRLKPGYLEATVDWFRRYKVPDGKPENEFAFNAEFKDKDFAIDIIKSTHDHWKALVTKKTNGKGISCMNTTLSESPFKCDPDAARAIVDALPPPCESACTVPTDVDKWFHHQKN
UniProt Q15843, whole entry: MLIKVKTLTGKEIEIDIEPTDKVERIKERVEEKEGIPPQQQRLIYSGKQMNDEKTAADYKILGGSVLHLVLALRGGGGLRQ
UniProt Q15714: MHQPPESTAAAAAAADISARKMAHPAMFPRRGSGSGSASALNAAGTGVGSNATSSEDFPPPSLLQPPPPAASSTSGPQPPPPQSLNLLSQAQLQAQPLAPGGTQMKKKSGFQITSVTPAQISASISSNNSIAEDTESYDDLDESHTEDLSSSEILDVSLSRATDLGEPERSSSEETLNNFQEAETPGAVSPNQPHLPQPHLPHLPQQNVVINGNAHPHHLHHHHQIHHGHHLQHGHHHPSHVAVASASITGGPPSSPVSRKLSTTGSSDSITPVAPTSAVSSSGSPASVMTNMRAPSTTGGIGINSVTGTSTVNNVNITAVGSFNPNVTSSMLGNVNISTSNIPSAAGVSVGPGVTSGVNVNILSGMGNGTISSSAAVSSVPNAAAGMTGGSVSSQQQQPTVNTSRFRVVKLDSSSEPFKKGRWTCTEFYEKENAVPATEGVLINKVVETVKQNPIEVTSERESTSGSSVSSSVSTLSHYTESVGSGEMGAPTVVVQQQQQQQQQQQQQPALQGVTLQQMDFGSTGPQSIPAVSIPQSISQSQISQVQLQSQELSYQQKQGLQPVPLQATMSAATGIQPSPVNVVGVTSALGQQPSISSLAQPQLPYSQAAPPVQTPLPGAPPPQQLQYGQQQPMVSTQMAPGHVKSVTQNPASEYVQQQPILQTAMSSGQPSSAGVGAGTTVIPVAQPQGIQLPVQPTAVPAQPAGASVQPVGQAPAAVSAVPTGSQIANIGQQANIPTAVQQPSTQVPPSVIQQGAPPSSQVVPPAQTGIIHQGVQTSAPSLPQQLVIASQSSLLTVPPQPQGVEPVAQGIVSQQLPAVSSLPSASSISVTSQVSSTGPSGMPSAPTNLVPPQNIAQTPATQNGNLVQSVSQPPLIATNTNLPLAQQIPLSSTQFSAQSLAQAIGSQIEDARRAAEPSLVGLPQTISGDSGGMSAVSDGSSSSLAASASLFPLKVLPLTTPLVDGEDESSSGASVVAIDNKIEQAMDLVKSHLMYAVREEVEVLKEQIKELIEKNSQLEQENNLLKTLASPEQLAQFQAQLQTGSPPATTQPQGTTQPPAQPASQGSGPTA
UniProt Q15906, whole entry: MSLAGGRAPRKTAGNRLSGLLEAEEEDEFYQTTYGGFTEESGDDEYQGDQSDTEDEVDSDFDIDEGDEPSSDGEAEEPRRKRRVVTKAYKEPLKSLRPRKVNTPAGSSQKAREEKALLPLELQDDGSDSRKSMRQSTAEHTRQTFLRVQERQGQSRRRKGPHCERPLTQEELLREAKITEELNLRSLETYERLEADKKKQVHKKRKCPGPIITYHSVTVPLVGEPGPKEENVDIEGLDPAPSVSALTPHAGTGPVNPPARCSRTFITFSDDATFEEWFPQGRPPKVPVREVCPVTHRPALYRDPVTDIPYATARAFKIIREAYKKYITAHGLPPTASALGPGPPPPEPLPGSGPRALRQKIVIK
UniProt Q5TA45, whole entry: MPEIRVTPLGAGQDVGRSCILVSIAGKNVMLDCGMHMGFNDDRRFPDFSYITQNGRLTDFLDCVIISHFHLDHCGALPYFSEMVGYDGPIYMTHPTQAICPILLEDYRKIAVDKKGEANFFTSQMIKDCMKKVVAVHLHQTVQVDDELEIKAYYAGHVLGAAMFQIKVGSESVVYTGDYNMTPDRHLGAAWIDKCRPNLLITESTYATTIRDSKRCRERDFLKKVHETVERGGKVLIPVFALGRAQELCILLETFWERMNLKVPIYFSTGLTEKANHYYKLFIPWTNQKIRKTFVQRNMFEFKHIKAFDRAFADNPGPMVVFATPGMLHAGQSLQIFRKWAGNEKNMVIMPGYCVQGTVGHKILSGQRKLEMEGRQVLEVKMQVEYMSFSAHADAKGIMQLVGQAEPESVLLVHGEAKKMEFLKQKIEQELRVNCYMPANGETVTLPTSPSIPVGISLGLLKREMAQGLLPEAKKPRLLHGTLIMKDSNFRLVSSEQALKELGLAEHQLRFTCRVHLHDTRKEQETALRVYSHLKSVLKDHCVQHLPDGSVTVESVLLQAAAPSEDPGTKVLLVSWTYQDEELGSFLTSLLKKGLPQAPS
UniProt Q15477, whole entry: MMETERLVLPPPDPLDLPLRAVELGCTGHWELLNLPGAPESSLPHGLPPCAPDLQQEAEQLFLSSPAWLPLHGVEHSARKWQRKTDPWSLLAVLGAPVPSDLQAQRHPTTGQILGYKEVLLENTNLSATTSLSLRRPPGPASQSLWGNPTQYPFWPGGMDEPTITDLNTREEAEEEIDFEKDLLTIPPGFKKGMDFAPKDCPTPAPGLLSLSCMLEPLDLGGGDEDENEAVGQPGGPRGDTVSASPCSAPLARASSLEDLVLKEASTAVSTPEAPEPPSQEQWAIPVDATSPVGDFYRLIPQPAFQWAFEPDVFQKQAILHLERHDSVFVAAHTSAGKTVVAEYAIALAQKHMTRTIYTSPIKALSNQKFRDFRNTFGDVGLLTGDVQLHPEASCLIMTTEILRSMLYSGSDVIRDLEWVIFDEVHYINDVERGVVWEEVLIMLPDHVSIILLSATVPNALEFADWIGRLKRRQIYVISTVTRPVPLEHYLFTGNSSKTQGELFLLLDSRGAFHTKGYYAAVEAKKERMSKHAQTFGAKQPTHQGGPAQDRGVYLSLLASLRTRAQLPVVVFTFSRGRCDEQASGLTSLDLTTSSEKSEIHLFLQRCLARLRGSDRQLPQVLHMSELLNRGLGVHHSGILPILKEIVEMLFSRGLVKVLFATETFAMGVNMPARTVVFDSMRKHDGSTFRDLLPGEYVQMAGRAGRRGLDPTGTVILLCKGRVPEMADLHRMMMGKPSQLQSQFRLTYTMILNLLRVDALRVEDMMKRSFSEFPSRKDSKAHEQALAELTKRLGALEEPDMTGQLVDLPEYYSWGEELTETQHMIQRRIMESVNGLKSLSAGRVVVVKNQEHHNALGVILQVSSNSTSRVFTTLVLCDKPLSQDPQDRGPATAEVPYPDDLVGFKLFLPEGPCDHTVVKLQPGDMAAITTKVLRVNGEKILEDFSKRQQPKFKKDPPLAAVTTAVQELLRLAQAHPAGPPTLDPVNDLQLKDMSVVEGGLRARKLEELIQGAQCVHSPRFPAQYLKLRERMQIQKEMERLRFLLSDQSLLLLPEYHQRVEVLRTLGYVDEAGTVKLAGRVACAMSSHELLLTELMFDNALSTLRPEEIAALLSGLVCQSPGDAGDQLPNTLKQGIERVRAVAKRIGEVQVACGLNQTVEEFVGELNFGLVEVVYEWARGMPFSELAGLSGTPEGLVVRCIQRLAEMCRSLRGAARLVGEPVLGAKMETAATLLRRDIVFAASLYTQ

± gives the standard deviation of the averaged measurements. This is one part of the list.

Compound in the test: Nc1nc2c(ncn2[C@@H]2O[C@H](COP(=O)(O)OP(=O)(O)OP(=O)(O)O)[C@@H](O)[C@H]2O)c(=O)[nH]1 [guanosine triphosphate]
Briefly: NP40-soluble protein abundance relative to vehicle (solubility fold change) (ratio); higher = more soluble protein in presence of GTP. The method in brief: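 Across three independent experiments, values are fold changes against the detergent-processed vehicle for each replicate, based on vsn-normalised intensities. The samples were Jurkat crude lysate treated with eight concentrations (0.1 to 10 mM) for 10 min at room temperature and then 3 min at 37 °C. Lysate was solubilised with 0.8% NP40 and benzonase, ultracentrifuged, and the supernatant analysed by TMT-labelled LC-MS/MS.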

For the target C9orf64 (UniProt Q5T6V5), the NP40-soluble protein abundance (concentration: 0.1mM) turned out to be 1.09 ± 0.049; the NP40-soluble protein abundance (concentration: 0.5mM) turned out to be 1.06 ± 0.037; the NP40-soluble protein abundance (concentration: 1mM) is 0.945 ± 0.051; the NP40-soluble protein abundance (concentration: 2mM) was 0.948 ± 0.03; the NP40-soluble protein abundance (concentration: 4mM) came to 0.902 ± 0.035; the NP40-soluble protein abundance (concentration: 6mM) stood at 0.884 ± 0.057. Also, the NP40-soluble protein abundance is 0.868 ± 0.054 (concentration: 8mM) and 0.844 ± 0.081 (concentration: 10mM).

On to UniProt Q52LJ0-2, for which the NP40-soluble protein abundance by setting is: (concentration: 0.1mM) 0.8879 ± 0.0058; (concentration: 0.5mM) 0.868 ± 0.042; (concentration: 1mM) 0.937 ± 0.023; (concentration: 2mM) 0.947 ± 0.027; (concentration: 4mM) 0.948 ± 0.02; (concentration: 6mM) 0.988 ± 0.023. For the same target, the NP40-soluble protein abundance is, setting by setting: (concentration: 8mM) 0.944 ± 0.05; (concentration: 10mM) 0.972 ± 0.042.

For UBE2V2 (UniProt Q15819), the NP40-soluble protein abundance runs as follows: (concentration: 0.1mM) 0.923 ± 0.027; (concentration: 0.5mM) 0.886 ± 0.05; (concentration: 1mM) 0.9487 ± 0.0088; (concentration: 2mM) 0.929 ± 0.035; (concentration: 4mM) 0.91 ± 0.042; (concentration: 6mM) 0.896 ± 0.048. Moreover, the NP40-soluble protein abundance reads like this: (concentration: 8mM) 0.896 ± 0.05; (concentration: 10mM) 0.95 ± 0.014.

As for ZNF326 (UniProt Q5BKZ1), the NP40-soluble protein abundance by setting is: (concentration: 0.1mM) 1.14 ± 0.09; (concentration: 0.5mM) 1.16 ± 0.13; (concentration: 1mM) 1.27 ± 0.21; (concentration: 2mM) 1.38 ± 0.21; (concentration: 4mM) 1.46 ± 0.32; (concentration: 6mM) 1.44 ± 0.29. Moreover, the NP40-soluble protein abundance came out at 1.52 ± 0.31 (concentration: 8mM) and 1.53 ± 0.3 (concentration: 10mM).

With KPNB1 (UniProt Q14974), the NP40-soluble protein abundance was found to be 0.986 ± 0.053 (concentration: 0.1mM); 0.988 ± 0.03 (concentration: 0.5mM); 1.01 ± 0.035 (concentration: 1mM); 0.989 ± 0.037 (concentration: 2mM); 1.01 ± 0.041 (concentration: 4mM); 0.993 ± 0.033 (concentration: 6mM). In addition, the NP40-soluble protein abundance by setting is: (concentration: 8mM) 1 ± 0.033; (concentration: 10mM) 0.992 ± 0.028.

Regarding UniProt Q16401 and related entries, the NP40-soluble protein abundance (concentration: 0.1mM) was 1.03 ± 0.049; the NP40-soluble protein abundance (concentration: 0.5mM) was found to be 1.02 ± 0.046; the NP40-soluble protein abundance (concentration: 1mM) turned out to be 1.01 ± 0.048; the NP40-soluble protein abundance (concentration: 2mM) is 1.02 ± 0.085; the NP40-soluble protein abundance (concentration: 4mM) worked out at 1.01 ± 0.066; the NP40-soluble protein abundance (concentration: 6mM) amounted to 0.987 ± 0.09. Besides, the NP40-soluble protein abundance stood at 0.976 ± 0.058 (concentration: 8mM) and 0.955 ± 0.043 (concentration: 10mM).

Turning to UniProt Q15365, the NP40-soluble protein abundance reads like this: (concentration: 0.1mM) 0.941 ± 0.089; (concentration: 0.5mM) 0.933 ± 0.078; (concentration: 1mM) 0.953 ± 0.072; (concentration: 2mM) 0.935 ± 0.077; (concentration: 4mM) 0.952 ± 0.074; (concentration: 6mM) 0.931 ± 0.053. For the same target, the NP40-soluble protein abundance by setting is: (concentration: 8mM) 0.939 ± 0.085; (concentration: 10mM) 0.951 ± 0.071.

In the case of IFI16 (UniProt Q16666), the NP40-soluble protein abundance reads like this: (concentration: 0.1mM) 1.06 ± 0.013; (concentration: 0.5mM) 1.145 ± 0.0098; (concentration: 1mM) 1.14 ± 0.013; (concentration: 2mM) 1.22 ± 0.019; (concentration: 4mM) 1.27 ± 0.05; (concentration: 6mM) 1.33 ± 0.047. Also, the NP40-soluble protein abundance stood at 1.34 ± 0.1 (concentration: 8mM) and 1.29 ± 0.063 (concentration: 10mM).

In the case of PPA1 (UniProt Q15181), the NP40-soluble protein abundance runs as follows: (concentration: 0.1mM) 0.919 ± 0.035; (concentration: 0.5mM) 0.963 ± 0.024; (concentration: 1mM) 0.912 ± 0.054; (concentration: 2mM) 0.877 ± 0.056; (concentration: 4mM) 0.859 ± 0.05; (concentration: 6mM) 0.893 ± 0.052. In addition, the NP40-soluble protein abundance is, setting by setting: (concentration: 8mM) 0.866 ± 0.044; (concentration: 10mM) 0.852 ± 0.054.

Take UniProt Q15843 and related entries: the NP40-soluble protein abundance is, setting by setting: (concentration: 0.1mM) 1.1 ± 0.29; (concentration: 0.5mM) 0.839 ± 0.092; (concentration: 1mM) 1.25 ± 0.31; (concentration: 2mM) 0.955 ± 0.21; (concentration: 4mM) 1.09 ± 0.29; (concentration: 6mM) 0.994 ± 0.18. Further, the NP40-soluble protein abundance came out at 1.11 ± 0.4 (concentration: 8mM) and 1.07 ± 0.25 (concentration: 10mM).

TSC22D1 (UniProt Q15714): the NP40-soluble protein abundance is, setting by setting: (concentration: 0.1mM) 0.935 ± 0.039; (concentration: 0.5mM) 1.06 ± 0.084; (concentration: 1mM) 1.08 ± 0.09; (concentration: 2mM) 1.06 ± 0.16; (concentration: 4mM) 0.974 ± 0.085; (concentration: 6mM) 1.03 ± 0.12. The NP40-soluble protein abundance runs as follows: (concentration: 8mM) 1.03 ± 0.012; (concentration: 10mM) 1.06 ± 0.16.

Regarding UniProt Q15906 and related entries, the NP40-soluble protein abundance reads like this: (concentration: 0.1mM) 1.01 ± 0.056; (concentration: 0.5mM) 1.13 ± 0.076; (concentration: 1mM) 1.09 ± 0.13; (concentration: 2mM) 1.22 ± 0.24; (concentration: 4mM) 1.3 ± 0.23; (concentration: 6mM) 1.38 ± 0.23. The NP40-soluble protein abundance was found to be 1.46 ± 0.36 (concentration: 8mM) and 1.45 ± 0.34 (concentration: 10mM).

In the case of UniProt Q5TA45 and related entries, the NP40-soluble protein abundance was found to be 1.08 ± 0.11 (concentration: 0.1mM); 1.07 ± 0.15 (concentration: 0.5mM); 1.03 ± 0.15 (concentration: 1mM); 1.11 ± 0.2 (concentration: 2mM); 1.16 ± 0.21 (concentration: 4mM); 1.13 ± 0.18 (concentration: 6mM). Also, the NP40-soluble protein abundance reads like this: (concentration: 8mM) 1.05 ± 0.11; (concentration: 10mM) 1.06 ± 0.092.

Regarding UniProt Q2KHT3 and related entries, the NP40-soluble protein abundance (concentration: 0.1mM) stood at 0.937 ± 0.024; the NP40-soluble protein abundance (concentration: 0.5mM) was 0.969 ± 0.016; the NP40-soluble protein abundance (concentration: 1mM) came to 0.963 ± 0.055; the NP40-soluble protein abundance (concentration: 2mM) came to 0.982 ± 0.08; the NP40-soluble protein abundance (concentration: 4mM) came to 0.957 ± 0.12; the NP40-soluble protein abundance (concentration: 6mM) turned out to be 0.954 ± 0.097. Further, the NP40-soluble protein abundance by setting is: (concentration: 8mM) 0.968 ± 0.079; (concentration: 10mM) 0.959 ± 0.11.

In the case of SKIV2L (UniProt Q15477), the NP40-soluble protein abundance reads like this: (concentration: 0.1mM) 0.966 ± 0.097; (concentration: 0.5mM) 1.01 ± 0.068; (concentration: 1mM) 0.992 ± 0.073; (concentration: 2mM) 1.02 ± 0.038; (concentration: 4mM) 1 ± 0.075; (concentration: 6mM) 1.02 ± 0.1. Besides, the NP40-soluble protein abundance (concentration: 8mM) worked out at 0.97 ± 0.074 and the NP40-soluble protein abundance (concentration: 10mM) was determined as 1.04 ± 0.063.
